From patent US20080160574A1 (KOREA ADVANCED INSTITUTE OF SCIENCE AND TECHNOLOGY KAIST, published 2008)
Results are given in words; binding and its absence hold for the method and conditions named. Some binding calls cover weakened binding; strength is not graded here.

By UniProt entry, the sequences of proteins in these tests, tags left out. Where a name states a change or a piece, a line headed by the entry shows the natural chain unless it says otherwise.
UniProt Q02763: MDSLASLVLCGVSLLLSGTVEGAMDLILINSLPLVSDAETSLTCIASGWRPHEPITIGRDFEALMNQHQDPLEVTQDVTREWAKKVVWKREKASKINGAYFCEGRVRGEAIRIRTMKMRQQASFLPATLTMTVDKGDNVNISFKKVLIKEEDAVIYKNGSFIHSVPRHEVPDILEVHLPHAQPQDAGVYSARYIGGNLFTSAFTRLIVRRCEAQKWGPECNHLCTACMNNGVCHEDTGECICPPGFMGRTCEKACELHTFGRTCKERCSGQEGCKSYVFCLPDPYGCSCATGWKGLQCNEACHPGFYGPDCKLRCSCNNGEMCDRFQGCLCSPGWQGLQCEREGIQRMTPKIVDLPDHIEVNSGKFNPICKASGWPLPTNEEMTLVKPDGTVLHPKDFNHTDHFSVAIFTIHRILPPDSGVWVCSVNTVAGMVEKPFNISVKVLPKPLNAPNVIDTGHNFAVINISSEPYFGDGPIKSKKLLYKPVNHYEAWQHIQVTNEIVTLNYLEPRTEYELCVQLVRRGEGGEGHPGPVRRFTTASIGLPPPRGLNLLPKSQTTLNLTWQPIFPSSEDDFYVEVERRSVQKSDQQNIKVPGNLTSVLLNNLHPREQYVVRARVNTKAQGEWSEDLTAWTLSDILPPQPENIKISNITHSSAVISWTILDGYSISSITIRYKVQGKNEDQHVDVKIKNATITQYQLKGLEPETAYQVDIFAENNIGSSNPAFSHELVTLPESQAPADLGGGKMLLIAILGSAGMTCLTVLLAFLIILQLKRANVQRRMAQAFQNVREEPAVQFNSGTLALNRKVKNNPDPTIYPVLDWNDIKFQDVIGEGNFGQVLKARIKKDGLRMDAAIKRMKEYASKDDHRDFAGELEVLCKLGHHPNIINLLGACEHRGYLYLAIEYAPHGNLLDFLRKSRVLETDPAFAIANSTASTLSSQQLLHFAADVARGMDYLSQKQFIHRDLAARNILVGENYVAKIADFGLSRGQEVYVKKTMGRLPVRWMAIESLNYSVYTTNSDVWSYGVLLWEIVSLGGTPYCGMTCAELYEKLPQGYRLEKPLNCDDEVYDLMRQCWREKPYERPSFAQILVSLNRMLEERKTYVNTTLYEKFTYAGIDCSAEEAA

Assays:
[1] = target: soluble Tie2-Fc (fusion of the ectodomain of Tie-2 receptor and the Fc domain of human IgG1, R&D Inc) (human) (UniProt Q02763); test: in vitro binding assay (pull-down)
[2] = target: soluble Tie2-Fc (fusion of the ectodomain of Tie-2 receptor and the Fc domain of human IgG1, R&D Inc) (human) (UniProt Q02763); test: Biacore (SPR), Tie2-Fc immobilised on the sensor chip, Fc reference subtracted
[3] = target: soluble Tie2-Fc (fusion of the ectodomain of Tie-2 receptor and the Fc domain of human IgG1, R&D Inc) (human) (UniProt Q02763); test: Biacore (SPR), Tie2-Fc immobilised on the sensor chip, analytes at 60 nM
[4] = target: soluble Tie2-Fc (fusion of the ectodomain of Tie-2 receptor and the Fc domain of human IgG1, R&D Inc) (human) (UniProt Q02763); test: Biacore, dissociation step, Tie2-Fc immobilized; not disrupted by HCl pH 4.0-2.0 or 1M NaCl

Measured: binding

B1: CMP/CC-Ang1/FD (coiled-coil domain of CMP - fibrinogen domain of Ang1) (ligand)
chain: YKDDDDKGILDEDPCECKSIVKFQTKVEELINTLQQKLEAVAKRIEALENKIIGSLVNLCTKEGVLLKGGKREEEKPFRDCADVYQAGFNKSGIYTIYINNMPEPKKVFCNMDVNGGGWTVIQHREDGSLDFQRGWKEYKMGFGNPSGEYWLGNEFIFAIYSQRQYMLRIELMDWEGNRAYSQYDRFHIGNEKQNYRLYLKGHTGTAGKQSSLILHGADFSTKDADNDNCMCKCALMLTGGWWFDACGPSNLNGMFYTAGQNHGKLNGIKWHYFKGPSYSLRSTTMMIRPLDF
notes: The end, 310, is worked out from bases 1-933 including the stop codon; ~140 kDa and ~180 kDa were observed under non-reducing conditions; also called CMP-Ang1/FD; C/CC-A1/FD
binds: all assays above

B2: COMP/CC-Ang1/FD (coiled-coil domain of COMP - fibrinogen domain of Ang1) (ligand)
chain: DYKDDDDKGILDLAPQMLRELQETNAALQDVRELLRQQVKEITFLKNTVMECDACGGSLVNLCTKEGVLLKGGKREEEKPFRDCADVYQAGFNKSGIYTIYINNMPEPKKVFCNMDVNGGGWTVIQHREDGSLDFQRGWKEYKMGFGNPSGEYWLGNEFIFAIYSQRQYMLRIELMDWEGNRAYSQYDRFHIGNEKQNYRLYLKGHTGTAGKQSSLILHGADFSTKDADNDNCMCKCALMLTGGWWFDACGPSNLNGMFYTAGQNHGKLNGIKWHYFKGPSYSLRSTTMMIRPLDF
notes: The end, 312, is worked out from the stated lengths: 16 signal + 8 FLAG + 3 + 45 COMP + 2 + 238 Ang1 Leu261-498; ~180 kDa and ~250 kDa were observed under non-reducing conditions; also called COMP-Ang1/FD; CO/CC-A1/FD
binds: all assays above
